Publication PMC12629419

Sequences of proteins named here, by UniProt entry; tags and fusion partners are left off. A change or cut given only in a name is not applied to a line headed by its entry. A line that says so, or that is headed by a name, gives the form on record, which may keep a tag or linker.
UniProt O96871: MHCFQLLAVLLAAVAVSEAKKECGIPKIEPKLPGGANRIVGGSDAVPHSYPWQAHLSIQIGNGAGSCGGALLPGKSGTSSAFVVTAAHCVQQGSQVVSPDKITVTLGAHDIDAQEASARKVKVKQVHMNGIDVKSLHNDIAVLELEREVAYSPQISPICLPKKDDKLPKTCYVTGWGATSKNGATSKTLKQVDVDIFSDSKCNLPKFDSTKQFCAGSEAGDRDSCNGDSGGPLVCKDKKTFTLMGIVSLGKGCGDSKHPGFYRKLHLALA
Type II cytokeratin 8 (CK8) in Caco-2 cells (P05787-2, form named): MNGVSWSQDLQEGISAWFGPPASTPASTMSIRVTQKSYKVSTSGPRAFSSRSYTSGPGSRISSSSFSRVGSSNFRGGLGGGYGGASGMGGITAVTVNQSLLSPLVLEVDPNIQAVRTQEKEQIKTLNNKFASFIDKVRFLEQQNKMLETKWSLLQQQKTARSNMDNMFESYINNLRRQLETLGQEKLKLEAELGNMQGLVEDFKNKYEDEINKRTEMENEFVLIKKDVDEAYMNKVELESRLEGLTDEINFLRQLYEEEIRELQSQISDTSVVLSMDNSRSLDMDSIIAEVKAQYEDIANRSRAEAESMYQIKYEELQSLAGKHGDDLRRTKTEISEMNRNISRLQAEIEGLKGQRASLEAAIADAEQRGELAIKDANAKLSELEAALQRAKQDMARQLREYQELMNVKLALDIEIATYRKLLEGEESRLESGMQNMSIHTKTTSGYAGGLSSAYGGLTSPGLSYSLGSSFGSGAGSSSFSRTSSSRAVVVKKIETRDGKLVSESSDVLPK

How the values were obtained:
[1] = target: Recombinant Trichinella spiralis serine proteinase (rTsSPc) with a GST-tag (Trichinella spiralis) (UniProt O96871); experiment: pull-down; GST-tagged rTsSPc (or GST tag protein) pre-immobilised on GST resin, 2 h at 4 C; washed with binding buffer (4.2 mM Na2HPO4, 2 mM KH2PO4, 140 mM NaCl, 10 mM KCl); incubated with lysate of normal Caco-2 cells for 2 h at 4 C; Western blot with anti-rTsSPc serum, anti-GST and anti-CK8; only the target purified
[2] = target: Recombinant Trichinella spiralis serine proteinase (rTsSPc) with a His-tag (Trichinella spiralis) (UniProt O96871); experiment: co-IP; Caco-2 monolayer incubated with His-tagged rTsSPc (20 ug/ml) at 37 C, 5% CO2 for 2 h; lysed in DISC buffer (30 mM Tris-HCl pH 8.0, 120 mM NaCl, 10% glycerol, 1% Triton X-100); Protein A/G agarose with mouse anti-rTsSPc serum or normal IgG, 4 h; Western blot; only the target purified

Question: What does the source list for “Type II cytokeratin 8 (CK8) in Caco-2 cells (from UniProt P05787-2 1-511)”?
Answer: binding [1]: binds; binding [2]: binds

These are yes or no findings as the source states them, for the method shown. Binding seen in cells or lysates may run through a third protein. Binding can be weak; no strength is given.
